Measurements as given in the supplement of paper PMC4840960.
Structures can show the parent of a compound that is named as a salt. ± gives the standard deviation of the averaged measurements. The list shows a part of the results. Part of the spread comes from offsets between plates or batches.

These compounds were tested on E18 rat cortical neuron-glia co-culture (assay: total nuclei (DAPI) / Olig2+ nuclei (ratio); higher = more depletion of OPC/OL lineage cells). Conditions: 1 µM; treatment time: 8 days (DIV5-DIV13).
Description: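 Primary E18 rat cortical co-cultures (neurons, astrocytes, OPC/OLs) in 96-well plates. NIH Clinical Collection compounds were added on DIV5 in myelination medium at 5 and 1 µM for 8 days, then cells were fixed on DIV13 and stained for MBP, Olig2 and DAPI. Myelination (contiguous aligned MBP fiber length per Olig2+ nucleus) was normalised to plate controls (0.1% DMSO = 0, 1 µM DAPT = 100) as % of DAPT. Each value is from duplicate wells with 4 image fields each. Fiber length/MBP is the fiber score divided by the MBP differentiation score; DAPI/Olig2 is the ratio of total to Olig2+ nuclei.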

| Compound | total nuclei |
| --- | --- |
| NC(=O)OCCCc1ccccc1 [Phenprobamate] | 2.89 |
| CN1C(=O)COc2c(C(=O)NC3CN4CCC3CC4)cc(Cl)cc21 (stereo not given) [Azasetron] | 2.56 |
| CCOC(=O)c1cncn1[C@H](C)c1ccccc1 [Etomidate] | 2.53 ± 0.31 |
| N=C(NCc1ccc(Cl)cc1)SCCCc1c[nH]cn1 [Clobenpropit] | 3.5 |
| CCC1(c2ccc(N)cc2)CCC(=O)NC1=O (stereo not given) [Aminoglutethimide] | 3.92 |
| CC(O)(CS(=O)(=O)c1ccc(F)cc1)C(=O)Nc1ccc(C#N)c(C(F)(F)F)c1 (stereo not given) [Bicalutamide] | 5.25 |
| CC(=O)O[C@H]1C[C@@H]2CC[C@@H]3[C@H](CC[C@@]4(C)[C@H]3C[C@H]([N+]3(C)CCCCC3)[C@@H]4OC(C)=O)[C@@]2(C)C[C@@H]1[N+]1(C)CCCCC1 [Pancuronium] | 3.3 |
| NCCc1ccccn1 [2-(2-aminoethyl)pyridine] | 2.54 |
| CC(C)CC(N(C)C)C1(c2ccc(Cl)cc2)CCC1 (stereo not given) [Sibutramine] | 3.92 ± 0.45 |
| O=C1CN=C(c2ccccc2)c2cc([N+](=O)[O-])ccc2N1 [Nitrazepam] | 3.21 |
| CC(NC(C)(C)C)C(=O)c1cccc(Cl)c1 (stereo not given) [Bupropion] | 4.26 ± 0.099 |
| NC(=O)C[S+]([O-])C(c1ccccc1)c1ccccc1 (stereo not given) [Modafinil] | 4.31 |
| C#CCN(C)[C@H](C)Cc1ccccc1 [Selegiline] | 3.71 ± 1.2 |
| COC(=O)N1CCN(C(=O)Cc2ccc(Cl)c(Cl)c2)C(CN2CCCC2)C1 (stereo not given) | 2.71 |
| CN1CC[C@]2(c3cccc(O)c3)Cc3nc4ccccc4cc3C[C@H]2C1 | 4.4 |
| c1cncc([C@@H]2CCCN2)c1 [Nornicotine] | 3.59 |
| COc1cccc(C2(O)CCCCC2CN(C)C)c1 (stereo not given) [Tramadol] | 2.76 |
| c1ccc(Cn2ccnc2)cc1 [1-Benzylimidazole] | 2.88 |
| CC[C@@H]1C=CC=CC[C@H](C)[C@@H](O)[C@@H](C)C(=O)[C@H](C)[C@@H](O)[C@H](C)C(=O)[C@H](C)[C@@H](O)[C@H](C)C=CC(=O)O[C@H]2[C@@H](C)[C@@H](CC1)O[C@@]1(CC[C@@H](C)[C@@H](C[C@H](C)O)O1)[C@@H]2C [Oligomycin C] | 5.93 |
| FC(F)(F)c1cccc(N2CCNCC2)c1 [1-(3-trifluoromethylphenyl)piperazine hydrochloride (TFMPP)] | 3.54 |

Same assay, conditions: 5 µM; treatment time: 8 days (DIV5-DIV13)

| Compound | total nuclei |
| --- | --- |
| NC(=O)OCCCc1ccccc1 [Phenprobamate] | 3 |
| CN1C(=O)COc2c(C(=O)NC3CN4CCC3CC4)cc(Cl)cc21 (stereo not given) [Azasetron] | 2.6 |
| CCOC(=O)c1cncn1[C@H](C)c1ccccc1 [Etomidate] | 2.7 ± 0.28 |
| N=C(NCc1ccc(Cl)cc1)SCCCc1c[nH]cn1 [Clobenpropit] | 4.2 |
| CCC1(c2ccc(N)cc2)CCC(=O)NC1=O (stereo not given) [Aminoglutethimide] | 4 |
| CC(O)(CS(=O)(=O)c1ccc(F)cc1)C(=O)Nc1ccc(C#N)c(C(F)(F)F)c1 (stereo not given) [Bicalutamide] | 7.1 |
| CC(=O)O[C@H]1C[C@@H]2CC[C@@H]3[C@H](CC[C@@]4(C)[C@H]3C[C@H]([N+]3(C)CCCCC3)[C@@H]4OC(C)=O)[C@@]2(C)C[C@@H]1[N+]1(C)CCCCC1 [Pancuronium] | 3.6 |
| NCCc1ccccn1 [2-(2-aminoethyl)pyridine] | 2.6 |
| CC(C)CC(N(C)C)C1(c2ccc(Cl)cc2)CCC1 (stereo not given) [Sibutramine] | 3.65 ± 0.21 |
| O=C1CN=C(c2ccccc2)c2cc([N+](=O)[O-])ccc2N1 [Nitrazepam] | 3.3 |
| CC(NC(C)(C)C)C(=O)c1cccc(Cl)c1 (stereo not given) [Bupropion] | 5.05 ± 0.071 |
| NC(=O)C[S+]([O-])C(c1ccccc1)c1ccccc1 (stereo not given) [Modafinil] | 4.4 |
| C#CCN(C)[C@H](C)Cc1ccccc1 [Selegiline] | 3.3 ± 0.57 |
| COC(=O)N1CCN(C(=O)Cc2ccc(Cl)c(Cl)c2)C(CN2CCCC2)C1 (stereo not given) | 2.8 |
| CN1CC[C@]2(c3cccc(O)c3)Cc3nc4ccccc4cc3C[C@H]2C1 | 4.8 |
| c1cncc([C@@H]2CCCN2)c1 [Nornicotine] | 3.9 |
| COc1cccc(C2(O)CCCCC2CN(C)C)c1 (stereo not given) [Tramadol] | 2.7 |
| c1ccc(Cn2ccnc2)cc1 [1-Benzylimidazole] | 2.9 |
| CC[C@@H]1C=CC=CC[C@H](C)[C@@H](O)[C@@H](C)C(=O)[C@H](C)[C@@H](O)[C@H](C)C(=O)[C@H](C)[C@@H](O)[C@H](C)C=CC(=O)O[C@H]2[C@@H](C)[C@@H](CC1)O[C@@]1(CC[C@@H](C)[C@@H](C[C@H](C)O)O1)[C@@H]2C [Oligomycin C] | 8.3 |
| FC(F)(F)c1cccc(N2CCNCC2)c1 [1-(3-trifluoromethylphenyl)piperazine hydrochloride (TFMPP)] | 3.7 |
